Measurements taken from PubChem BioAssay AID1347076 (National Center for Advancing Translational Sciences (NCATS), 2019).
In all, about 400,000 compounds went through this assay and about 13,000 (3.2%) were called active. Inconclusive results, whose numbers are uncertain, are shown with a selection of clear calls. The call rests on the fitted dose curve; in most records, active means well fitted cell-killing curve with a large enough effect; inconclusive means small, poorly fitted or top-dose-only effect, or effect the other way; inactive means flat fitted curve, though single readings scatter. A potency beside an inconclusive call is a rough fit, not a confirmed value.

Experiment: qHTS assay for MDR1-selective chemotherapeutics: Primary screen using the drug-selected MDR subline cells KB-V1; further: nearly all actives have a fitted effect of over 60% in size
Conditions: KB-V1 MDR cells viability, CellTiter-Glo, 72 h; activity change, negative = cytotoxicity: at 46.1 µM (top of the series)
Method in brief: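 qHTS viability screen in drug-selected KB-V1 MDR cells: 72 h compound treatment at 37 degrees C, ATP luminescence end point.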
On the % scale 0 is the no-effect control and ±100 the full control effect; potency means the concentration at half of the fitted maximal effect.

| Structure (SMILES) | Potency | activity change, negative = cytotoxicity |
| --- | --- | --- |
| O=C1CC(C(=O)Nc2ccc(C(=O)N3CCOCC3)cc2)C2(CCCCC2)O1 (stereo unspecified) | inconclusive: 14.6 µM [rising, partial curve] |  |
| CC(=O)Oc1cccc2c1C(=O)c1c(OC(C)=O)cc(C(=O)O)cc1C2=O | inconclusive: 29.1 µM [cytotoxic, single point] |  |
| O=C(CCc1ccc(S(=O)(=O)NCCc2ccccc2)cc1)NCc1ccco1 | inconclusive: 20.6 µM [cytotoxic, partial curve, poor fit] |  |
| Cc1ccc(-c2nc(CSCC(=O)NCc3cccnc3)c(C)o2)cc1 | active: 3.66 µM |  |
| COc1ccc(NC(=O)[C@@H](NS(=O)(=O)c2cccc(Cl)c2)C(C)C)cc1S(=O)(=O)N1CCOCC1 | inconclusive: 29.1 µM [rising, single point] |  |
| CCOc1ccc(/C(O)=C2/C(=O)C(=O)N(c3ccccn3)C2c2ccc(Cl)cc2)c(C)c1 (stereo unspecified) | inconclusive: 16.4 µM [cytotoxic, single point] |  |
| CCN(C(=O)CN1C(=O)/C(=C/c2ccccc2)SC1=S)C1CCS(=O)(=O)C1 (stereo unspecified) |  | inactive: 11.3% |
| CCCC(=O)Nc1ccc2nc(SCCOc3ccccc3)sc2c1 |  | inactive: 5.29% |
| COc1cccc(C2CC(c3cccs3)=NN2C(=O)c2ccco2)c1O (stereo unspecified) |  | inactive: -23.7% |
| c1ccc2c(C[C@@H]3CNCCN3CCCCC3CCCCC3)cccc2c1 |  | inactive: -12.1% |
| O=S1(=O)C=C(Sc2nc3cc(Cl)ccc3o2)c2ccccc21 | inconclusive: 16.4 µM [cytotoxic, single point] |  |
| C[C@H](NS(=O)(=O)c1ccc2c(c1)OCCCO2)C(=O)N1CCN(Cc2ccccc2)CC1 | inconclusive: 0.58 µM [cytotoxic, full curve, poor fit] |  |
| CCCCOCCCNC(=O)C[C@@H]1C[C@@]2(C(=O)OC)CC(C)(C)CC=C2N(Cc2cccc3ccccc23)C1=O | active: 20.6 µM |  |
| CCNS(=O)(=O)c1ccc(NC(=O)c2ccc(Cn3cc([N+](=O)[O-])cn3)o2)cc1 | inconclusive: 16.4 µM [rising, single point] |  |
| COc1ccc(C)cc1N(CC(=O)N1CCCCCC1)S(=O)(=O)c1ccccc1 | inconclusive: 18.4 µM [cytotoxic, single point] |  |
| COc1ccc(Cl)cc1C(=O)NCC(c1ccco1)N1CCCC1 (stereo unspecified) | active: 9.2 µM |  |
| COc1ccc(-c2ccc3[nH]c4c(c3c2)CCN2C[C@@H]([C@H](C)O)[C@@H](N(C)C(=O)Nc3cc(Cl)cc(Cl)c3)C[C@@H]42)cc1 | inconclusive: 29.1 µM [cytotoxic, single point] |  |
| Cc1cccc(NS(=O)(=O)c2cccc(C(=O)N3CCN(c4ccccn4)CC3)c2)c1 | inconclusive: 29.1 µM [cytotoxic, single point] |  |
| Cc1cc(NC(=O)CSc2nncc(=O)n2N)no1 | inconclusive: 14.6 µM [rising, single point] |  |
| COc1ccc(C(C)=O)cc1CN1C(=O)C(C)ON=C1c1ncccc1C (stereo unspecified) |  | inactive: -0.27% |
| CCCCC(=O)Nc1cc(C)c(NC(=O)c2cccs2)cn1 | inconclusive: 8.2 µM [cytotoxic, partial curve, poor fit] |  |
| O=C(CN1C(=O)CSc2ncccc21)NCCN1CCOCC1 | inconclusive: 29.1 µM [rising, single point] |  |
| c1ccc(CSc2nc3ccccc3[nH]2)cc1 |  | inactive: 13.2% |
| C=CC[C@@H](CC(=O)N[C@H](CO)Cc1ccccc1)C(=O)N[C@H](COC(=O)[C@@H](CC=C)Cc1ccc(F)cc1)C(C)(C)C |  | inactive: 0% |

In the list so far, 2 contain an NH in an aromatic ring:

| Structure (SMILES) | Potency | activity change, negative = cytotoxicity |
| --- | --- | --- |
| COc1ccc(-c2ccc3[nH]c4c(c3c2)CCN2C[C@@H]([C@H](C)O)[C@@H](N(C)C(=O)Nc3cc(Cl)cc(Cl)c3)C[C@@H]42)cc1 | inconclusive: 29.1 µM [cytotoxic, single point] |  |
| c1ccc(CSc2nc3ccccc3[nH]2)cc1 |  | inactive: 13.2% |

Additional records

| Structure (SMILES) | Potency | activity change, negative = cytotoxicity |
| --- | --- | --- |
| O=C(Nc1ccc2c(c1)OCCO2)c1ccccn1 | inconclusive: 16.4 µM [cytotoxic, partial curve, poor fit] |  |
| COc1ccc(Cn2c(=O)oc3ccccc32)cc1OC | active: 20.6 µM |  |
| CCOc1ccc(CSC(=N)N)cc1[N+](=O)[O-] | inconclusive: 29.1 µM [cytotoxic, single point] |  |
| COc1ccc(NC(=O)c2cc(-c3ccncc3)nc3ccccc23)c(OC)c1 | inconclusive: 25.9 µM [cytotoxic, partial curve, poor fit] |  |
| NC(=O)c1c(NC(=O)C(=O)N2CCOCC2)sc2c1CCCC2 |  | inactive: 3.46% |
| CCOc1ccccc1NC(=O)CSc1nnc2c(CC)c(C)nc(N)n12 | active: 14.6 µM |  |
| O=C(Nc1cccc(S(=O)(=O)N2CCCCCC2)c1)c1cc(=O)c2ccccc2o1 | inconclusive: 5.8 µM [cytotoxic, partial curve] |  |
| CN1CCC(N(C)CC(=O)Nc2cccc(Oc3ccccc3)c2)CC1 | inconclusive: 10.3 µM [cytotoxic, partial curve, poor fit] |  |
| COc1ccccc1N1CCN(S(=O)(=O)c2c(C)ccc3nsnc23)CC1 |  | inactive: 12.5% |
| O=C(c1ccccc1)n1nc(-c2ccccc2)nc1NCc1ccco1 | inconclusive: 4.11 µM [rising, full curve, poor fit] |  |
| O=C(CCc1ccccc1)NC1(Cc2ccccc2)CCN(CCc2cccs2)C1=O (stereo unspecified) |  | inactive: 5.31% |
| CC(C)(C)N(NC(=O)c1ccccc1)C(=O)c1cccc(C(=O)N(NC(=O)c2ccccc2)C(C)(C)C)c1 | inconclusive: 29.1 µM [rising, single point] |  |
| CCOC(=O)C(C)N1C(=O)S/C(=C/c2cc(C)n(-c3ccncc3)c2C)C1=O (stereo unspecified) | inconclusive: 16.4 µM [cytotoxic, single point] |  |
| CCOc1cc(CNCCN2CCOCC2)ccc1OCc1ccccc1Cl |  | inactive: -8.09% |
| COc1ccccc1NCC(O)Cn1c2ccccc2c2ccccc21 (stereo unspecified) |  | inactive: -1.91% |
| CC(C)n1cc(CN2CCCC(C(=O)Nc3cccc(-c4cc5ccccc5[nH]4)c3)C2)cn1 (stereo unspecified) | inconclusive: 29.1 µM [cytotoxic, single point] |  |
| O=C(C(=O)N1CCN(c2ccncc2)CC1)c1cccc(Br)c1 | inconclusive: 16.4 µM [cytotoxic, partial curve, poor fit] |  |
| CCS(=O)(=O)N1CCCC(C(=O)c2ccc(OC)cc2C)C1 (stereo unspecified) | inconclusive: 23.1 µM [cytotoxic, single point] |  |
| CCOC(=O)N1CCc2c(sc(NCc3ccc(N(C)C)cc3)c2C(=O)Nc2ccccc2OCC)C1 | inconclusive: 29.1 µM [cytotoxic, single point] |  |
| Cc1cccc(Oc2ccccc2NC(=O)CSCC(=O)Nc2cc(C)on2)c1 | active: 7.31 µM |  |
| Fc1ccc(CNC(=S)Nc2ccccc2F)cc1 |  | inactive: 7.27% |
| N#Cc1ccc(NC(=O)COC(=O)c2cccnc2Cl)cc1 |  | inactive: -2.08% |
| CNc1oc(-c2ccc(OCc3ccccc3)cc2)nc1C#N | active: 23.1 µM |  |
| COc1cccc(CNC(=O)C2=C(C)C(=O)OC23CCC(C)CC3)c1 (stereo unspecified) |  | inactive: -20.6% |

| Structure (SMILES) | Potency | activity change, negative = cytotoxicity |
| --- | --- | --- |
| CCn1c2ccccc2c2nc3cc(C(=O)O)ccc3nc21 | inconclusive: 13 µM [cytotoxic, partial curve, poor fit] |  |
| CCN(CC)CCNC(=O)Cn1cnc2sc(C)c(S(=O)(=O)N3CCN(c4ccccc4OC)CC3)c2c1=O | inconclusive: 8.2 µM [rising, single point] |  |
| CC1CCCc2sc3ncn(N)c(=N)c3c21 (stereo unspecified) | inconclusive: 18.4 µM [cytotoxic, single point] |  |
| CC(=O)N1c2ccc(S(=O)(=O)N3c4ccccc4CC3C)cc2CC1C (stereo unspecified) |  | inactive: -21.1% |
| NC(=O)Cn1c(=O)n(CCc2ccccc2)c(=O)c2c3c(sc21)CCCC3 | active: 4.11 µM |  |
| CCc1ccc(S(=O)(=O)Nc2cc3c(cc2C)n(C)c(=O)n3C)cc1 |  | inactive: -26.1% |
| CC(C)CNS(=O)(=O)c1ccc(S(=O)(=O)N2CCC3(CC2)OCCO3)cc1 | active: 14.6 µM |  |
| COc1ccc(C)cc1NC(=O)CN(C)S(=O)(=O)c1ccc2c(c1)CC(C)N2C(C)=O (stereo unspecified) | inconclusive: 0.0461 µM [cytotoxic, full curve, poor fit] |  |
| CCN(Cc1ccccc1)C(=O)c1cccc(OC2CCN(C(=O)C3CC3)CC2)c1 |  | inactive: 24.3% |
| COc1ccc(CN(C(=O)c2ccc(OCC(C)C)cc2)C2CCS(=O)(=O)C2)cc1 (stereo unspecified) |  | inactive: 4.03% |
| COc1ccc(-c2cnc3c(NC(C)=O)cc(-c4ccc(C(=O)NC5CC5)cc4)cn23)cc1OC |  | inactive: 6.38% |
| N#C/C(=C(/O)c1ccc2c(c1)OCO2)c1nc2cc(C(F)(F)F)ccc2s1 | inconclusive: 6.51 µM [cytotoxic, partial curve, poor fit] |  |
| COC(=O)Cn1c(O)c(N=NC(=O)CNC(=O)COc2cccc(C)c2)c2ccccc21 |  | inactive: 0.159% |
| CCCN(CC(=O)Nc1ccccc1Br)CC(=O)Nc1ccc(F)c(F)c1F |  | inactive: 0% |
| O=C(C1CCN(c2nnnn2-c2ccccc2)CC1)N1CCN(c2ccccc2)CC1 | inconclusive: 23.1 µM [cytotoxic, partial curve, poor fit] |  |
| CC(C)NC(=O)C1(C)CN(S(C)(=O)=O)CC(=O)N1CC(F)(F)F (stereo unspecified) |  | inactive: -2.71% |
| COc1cc(NC(=S)N2CCN(c3ccccn3)CC2)c(OC)cc1Cl | active: 18.4 µM |  |
| S=C(Nc1ccc(Br)cc1Cl)NC1CCN(Cc2ccccc2)CC1 | active: 11.6 µM |  |
| COc1cccc(C2C=C(c3ccc(C)cc3)Nc3c(C(=O)Nc4ccc(F)cc4)cnn32)c1OC (stereo unspecified) | inconclusive: 25.9 µM [cytotoxic, single point] |  |
| COc1ccccc1CNc1ncnc2onc(-c3ccc(Cl)cc3)c12 |  | inactive: 9.03% |
| O=C(c1ccc(N2CCCC2)c([N+](=O)[O-])c1)N1CCN(c2ccccn2)CC1 |  | inconclusive: -32.8% [cytotoxic] |
| COc1cc(/C=C2\COC/C(=C\c3cc(OC)c(OC)c(OC)c3)C2=O)cc(OC)c1OC | inconclusive: 0.651 µM [cytotoxic, full curve, poor fit] |  |
| O=C(O)CN1C(=O)/C(=C\c2cc(Br)ccc2OCc2ccc(Cl)cc2)SC1=S | inconclusive: 2.91 µM [rising, full curve, poor fit] |  |

Arranged by molecular weight (descending): three of the compounds above.

| Structure (SMILES) | Potency | activity change, negative = cytotoxicity |
| --- | --- | --- |
| COc1ccc(-c2cnc3c(NC(C)=O)cc(-c4ccc(C(=O)NC5CC5)cc4)cn23)cc1OC |  | inactive: 6.38% |
| COC(=O)Cn1c(O)c(N=NC(=O)CNC(=O)COc2cccc(C)c2)c2ccccc21 |  | inactive: 0.159% |
| O=C(c1ccc(N2CCCC2)c([N+](=O)[O-])c1)N1CCN(c2ccccn2)CC1 |  | inconclusive: -32.8% [cytotoxic] |
